# Measurements reported in PubChem BioAssay AID1224827 (NIAID, 2016).
# Assay: 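Identify regulators of the macrophage TNF-alpha response to bacterial LPS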 (follow-up of hits)
# System: RAW264.7 G9 mouse macrophage reporter clone
# Reagents: single siRNA against mouse genes, 100 nM siRNA
# Time to read-out: siRNA for 2 days, then LPS about 16 h
# Treatment: bacterial lipopolysaccharide (LPS), 10 ng/ml, cells fixed after overnight (about 16 h) stimulation
# Read-out: 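Imaged nuclear TNF reporter intensity, background removed, scaled per plate and to non-targeting control wells, as z-scores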
# Direction: TNF reporter z-score, mean and TNF reporter z-score: higher = stronger Tnf promoter reporter signal; gene median z, three same-vendor siRNAs: higher = stronger Tnf reporter signal for the gene
# Call rule: 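An siRNA is called active when its mean z-score over replicates is at least +2 or at most -2; control wells get no call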
# Here is one part, drawn at random, of about 3,800 reagents tested. About 2,200 of all reagents (57%) count as active. 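Active means a strong reporter change in either direction; calls are per siRNA, not per gene; qiagen siRNAs gave weaker effects.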 Unmarked entries are inactive. The numbers tell different reagents against one gene apart.
gene knocked down,reagent no.,"TNF reporter z-score, mean","gene median z, three same-vendor siRNAs","TNF reporter z-score, repeat 1","TNF reporter z-score, repeat 2"
Neurod1,1,-2.25 (active),-3.35,-2.71,-1.79
Neurod1,2,-3.17 (active),-3.35,-4.3,-2.03
Neurod1,3,-4.32 (active),-3.35,-4,-4.65
Neurod1,4,1.54,-0.491,3.33,-0.243
Neurod1,5,0.257,-0.491,1.25,-0.739
Neurod1,6,-3.79 (active),-0.491,-3.85,-3.73
Crisp1,1,6.01 (active),-0.516,7.43,4.6
Crisp1,2,-0.516,-0.516,-1.4,0.368
Crisp1,3,-3.63 (active),-0.516,-3.14,-4.13
Crisp1,4,2.58 (active),0.311,4.41,0.741
Crisp1,5,1.55,0.311,3.21,-0.119
Crisp1,6,-2.73 (active),0.311,-1.94,-3.51
Trhr,1,-0.219,-5.18,-0.177,-0.261
Trhr,2,-5.56 (active),-5.18,-5.67,-5.45
Trhr,3,-5.94 (active),-5.18,-4.92,-6.97
Trhr,4,1.83,-1.06,4.37,-0.701
Trhr,5,-1.06,-1.06,-1.06,-1.07
Trhr,6,-2.25 (active),-1.06,-1.8,-2.7
Vmp1,1,6.05 (active),-0.277,6.26,5.84
Vmp1,2,-1.18,-0.277,-0.515,-1.85
Vmp1,3,-1.5,-0.277,-2.95,-0.0387
Vmp1,4,-1.15,-2.26,-2.86,0.567
Vmp1,5,-2.19 (active),-2.26,-2.82,-1.56
Vmp1,6,-2.43 (active),-2.26,-3.15,-1.7
Man2b2,1,-2.98 (active),-3.75,-1.8,-4.16
Man2b2,2,-3.17 (active),-3.75,-2.68,-3.66
Man2b2,3,-4.3 (active),-3.75,-3.84,-4.76
Man2b2,4,2.27 (active),0.0862,4.22,0.324
Man2b2,5,0.0862,0.0862,-0.0397,0.212
Man2b2,6,-1.54,0.0862,-0.972,-2.11
Bmp2,1,-0.333,-1.91,-1.61,0.948
Bmp2,2,-1.94,-1.91,-2.03,-1.84
Bmp2,3,-2.88 (active),-1.91,-1.98,-3.77
Bmp2,4,1.95,0.105,3.49,0.41
Bmp2,5,2.43 (active),0.105,5.05,-0.2
Bmp2,6,-1.06,0.105,-0.982,-1.13
Cyp4a31,1,2.93 (active),-0.978,5.72,0.142
Cyp4a31,2,-0.978,-0.978,-0.836,-1.12
Cyp4a31,3,-2.42 (active),-0.978,-3.23,-1.61
Drap1,1,-2.12 (active),-3.72,-2.69,-1.55
Drap1,2,-3.72 (active),-3.72,-3.49,-3.95
Drap1,3,-4.45 (active),-3.72,-4.6,-4.3
Drap1,4,0.764,-0.436,1.96,-0.431
Drap1,5,-1.37,-0.436,-0.0864,-2.66
Drap1,6,-1.61,-0.436,-0.44,-2.78

Continued, starting with the last 9 of the part before.
gene knocked down,reagent no.,"TNF reporter z-score, mean","gene median z, three same-vendor siRNAs","TNF reporter z-score, repeat 1","TNF reporter z-score, repeat 2"
Cyp4a31,1,2.93 (active),-0.978,5.72,0.142
Cyp4a31,2,-0.978,-0.978,-0.836,-1.12
Cyp4a31,3,-2.42 (active),-0.978,-3.23,-1.61
Drap1,1,-2.12 (active),-3.72,-2.69,-1.55
Drap1,2,-3.72 (active),-3.72,-3.49,-3.95
Drap1,3,-4.45 (active),-3.72,-4.6,-4.3
Drap1,4,0.764,-0.436,1.96,-0.431
Drap1,5,-1.37,-0.436,-0.0864,-2.66
Drap1,6,-1.61,-0.436,-0.44,-2.78
Dixdc1,1,0.686,-2.35,-0.0258,1.4
Dixdc1,2,-2.35 (active),-2.35,-3.06,-1.63
Dixdc1,3,-4.75 (active),-2.35,-4.77,-4.74
Dixdc1,4,3.4 (active),-0.248,6.41,0.382
Dixdc1,5,0.907,-0.248,2.69,-0.878
Dixdc1,6,-1.31,-0.248,-1.51,-1.11
Rdh1,1,2.07 (active),-0.992,1.19,2.96
Rdh1,2,-0.992,-0.992,-1.91,-0.0723
Rdh1,3,-4.09 (active),-0.992,-4.21,-3.96
Rdh1,4,3.12 (active),0.437,5.87,0.369
Rdh1,5,0.974,0.437,1.44,0.505
Rdh1,6,-2.08 (active),0.437,-1.75,-2.41
Rlim,1,3.24 (active),-3.85,3.53,2.94
Rlim,2,-4.23 (active),-3.85,-3.79,-4.67
Rlim,3,-4.32 (active),-3.85,-3.9,-4.73
Rlim,4,-0.794,-0.631,-1.67,0.0825
Rlim,5,-0.306,-0.631,0.29,-0.901
Rlim,6,-1.3,-0.631,-0.361,-2.25
Or4c107,1,-1.69,-2.89,-2.9,-0.479
Or4c107,2,-2.54 (active),-2.89,-2.87,-2.21
Or4c107,3,-3.8 (active),-2.89,-3.66,-3.94
Or4c107,4,0.637,-0.649,-0.165,1.44
Or4c107,5,-0.999,-0.649,-1.29,-0.706
Or4c107,6,-1.16,-0.649,-0.593,-1.72
Hivep2,1,1.11,-1.18,-0.561,2.78
Hivep2,2,-1.18,-1.18,-1.61,-0.749
Hivep2,3,-3.77 (active),-1.18,-3.95,-3.59
Hivep2,4,3.2 (active),-1.45,5.43,0.965
Hivep2,5,-1.45,-1.45,-2.2,-0.697
Hivep2,6,-3.52 (active),-1.45,-3.26,-3.79
